The data set concerns RAW 264.7 macrophage cell line. The data set can be described thus: Fluorescence microscopy of intracellular localization of vancomycin and TPCS2a. The note with it: 1 μg/ml TPCS2a and 50 μg/mL BODIPY FL-Vancomycin for 18 h. The class given is cell-based, mouse.

Structures are written as SMILES.

Take `CN[C@H](CC(C)C)C(=O)N[C@H]1C(=O)N[C@@H](CC(N)=O)C(=O)N[C@H]2C(=O)N[C@H]3C(=O)N[C@H](C(=O)N[C@H](C(=O)O)c4cc(O)cc(O)c4-c4cc3ccc4O)[C@H](O)c3ccc(c(Cl)c3)Oc3cc2cc(c3O[C@@H]2O[C@H](CO)[C@@H](O)[C@H](O)[C@H]2O[C@H]2C[C@](C)(N)[C@H](O)[C@H](C)O2)Oc2ccc(cc2Cl)[C@H]1O` [vancomycin]: the intracellular localization result is “released from the endocytic vesicles” (after illumination for 120 s) and “localized in small spots inside the cells, corresponding to endocytic vesicles” (before illumination).
